This note sets out measurements from article PMC9867282.

Amino acid sequences for entries named in this document (tags omitted).
UniProt Q1MSJ5: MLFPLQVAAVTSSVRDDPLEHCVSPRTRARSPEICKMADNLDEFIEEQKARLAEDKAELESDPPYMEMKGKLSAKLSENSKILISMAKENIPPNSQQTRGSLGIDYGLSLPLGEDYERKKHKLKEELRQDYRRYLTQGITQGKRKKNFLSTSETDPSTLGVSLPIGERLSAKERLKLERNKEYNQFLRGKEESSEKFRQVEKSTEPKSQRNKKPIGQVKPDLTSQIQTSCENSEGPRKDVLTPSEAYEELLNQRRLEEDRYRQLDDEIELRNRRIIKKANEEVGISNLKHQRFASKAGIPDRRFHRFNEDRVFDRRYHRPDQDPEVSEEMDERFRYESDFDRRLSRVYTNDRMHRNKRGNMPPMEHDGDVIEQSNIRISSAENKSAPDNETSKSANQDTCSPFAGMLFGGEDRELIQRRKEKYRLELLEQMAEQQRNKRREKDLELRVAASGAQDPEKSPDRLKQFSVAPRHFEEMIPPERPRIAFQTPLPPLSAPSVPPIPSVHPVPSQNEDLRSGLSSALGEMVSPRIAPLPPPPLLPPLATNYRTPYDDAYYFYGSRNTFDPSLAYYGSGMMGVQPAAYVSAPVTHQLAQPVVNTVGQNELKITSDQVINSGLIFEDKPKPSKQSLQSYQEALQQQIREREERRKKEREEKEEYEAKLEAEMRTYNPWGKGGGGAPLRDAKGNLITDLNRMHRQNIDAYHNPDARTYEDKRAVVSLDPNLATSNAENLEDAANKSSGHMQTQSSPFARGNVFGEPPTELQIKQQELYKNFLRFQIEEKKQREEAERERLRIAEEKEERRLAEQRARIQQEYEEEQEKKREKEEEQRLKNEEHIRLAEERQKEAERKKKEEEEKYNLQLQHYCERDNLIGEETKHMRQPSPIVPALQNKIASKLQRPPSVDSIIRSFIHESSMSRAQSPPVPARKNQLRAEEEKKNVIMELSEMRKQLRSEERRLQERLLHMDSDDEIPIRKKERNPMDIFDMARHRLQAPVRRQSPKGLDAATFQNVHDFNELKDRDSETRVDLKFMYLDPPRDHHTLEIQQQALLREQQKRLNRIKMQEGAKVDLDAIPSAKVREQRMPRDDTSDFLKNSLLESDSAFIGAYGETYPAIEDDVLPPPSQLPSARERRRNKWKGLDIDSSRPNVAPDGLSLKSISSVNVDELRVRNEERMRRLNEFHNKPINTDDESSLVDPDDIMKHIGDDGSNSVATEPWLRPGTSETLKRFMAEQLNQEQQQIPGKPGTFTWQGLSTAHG
UniProt Q9HAW4: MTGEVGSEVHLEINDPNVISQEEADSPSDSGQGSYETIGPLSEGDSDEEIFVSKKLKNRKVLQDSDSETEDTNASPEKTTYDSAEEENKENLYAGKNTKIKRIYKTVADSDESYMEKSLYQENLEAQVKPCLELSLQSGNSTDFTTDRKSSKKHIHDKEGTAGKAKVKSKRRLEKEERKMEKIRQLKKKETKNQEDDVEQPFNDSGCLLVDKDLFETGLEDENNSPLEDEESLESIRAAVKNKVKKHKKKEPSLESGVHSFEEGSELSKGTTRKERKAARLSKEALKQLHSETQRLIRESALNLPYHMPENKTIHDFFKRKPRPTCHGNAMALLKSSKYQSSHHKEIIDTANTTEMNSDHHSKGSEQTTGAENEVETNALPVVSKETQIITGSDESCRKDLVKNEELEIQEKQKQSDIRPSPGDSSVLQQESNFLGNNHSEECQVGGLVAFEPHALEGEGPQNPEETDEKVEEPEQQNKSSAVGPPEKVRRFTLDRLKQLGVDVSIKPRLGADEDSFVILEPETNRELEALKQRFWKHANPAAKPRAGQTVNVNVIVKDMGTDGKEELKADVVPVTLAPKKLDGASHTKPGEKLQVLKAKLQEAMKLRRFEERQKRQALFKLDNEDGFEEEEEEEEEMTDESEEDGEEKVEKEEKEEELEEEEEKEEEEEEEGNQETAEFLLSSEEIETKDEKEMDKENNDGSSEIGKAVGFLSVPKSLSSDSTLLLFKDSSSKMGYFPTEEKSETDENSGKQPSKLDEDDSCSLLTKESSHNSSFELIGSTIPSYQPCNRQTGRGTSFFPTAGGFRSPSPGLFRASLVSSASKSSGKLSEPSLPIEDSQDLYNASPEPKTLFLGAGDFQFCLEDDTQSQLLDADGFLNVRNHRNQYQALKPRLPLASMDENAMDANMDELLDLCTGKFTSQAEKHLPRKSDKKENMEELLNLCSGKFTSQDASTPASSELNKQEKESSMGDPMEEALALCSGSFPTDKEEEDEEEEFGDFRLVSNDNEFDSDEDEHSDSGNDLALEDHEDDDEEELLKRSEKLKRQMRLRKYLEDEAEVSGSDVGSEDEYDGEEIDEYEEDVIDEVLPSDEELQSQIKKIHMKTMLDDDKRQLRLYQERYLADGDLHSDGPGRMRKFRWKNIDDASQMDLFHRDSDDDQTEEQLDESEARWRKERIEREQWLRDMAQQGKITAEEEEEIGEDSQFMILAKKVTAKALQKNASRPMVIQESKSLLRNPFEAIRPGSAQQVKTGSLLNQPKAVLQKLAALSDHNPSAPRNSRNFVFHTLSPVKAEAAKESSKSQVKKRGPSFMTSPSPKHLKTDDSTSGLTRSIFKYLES
UniProt Q5VT06: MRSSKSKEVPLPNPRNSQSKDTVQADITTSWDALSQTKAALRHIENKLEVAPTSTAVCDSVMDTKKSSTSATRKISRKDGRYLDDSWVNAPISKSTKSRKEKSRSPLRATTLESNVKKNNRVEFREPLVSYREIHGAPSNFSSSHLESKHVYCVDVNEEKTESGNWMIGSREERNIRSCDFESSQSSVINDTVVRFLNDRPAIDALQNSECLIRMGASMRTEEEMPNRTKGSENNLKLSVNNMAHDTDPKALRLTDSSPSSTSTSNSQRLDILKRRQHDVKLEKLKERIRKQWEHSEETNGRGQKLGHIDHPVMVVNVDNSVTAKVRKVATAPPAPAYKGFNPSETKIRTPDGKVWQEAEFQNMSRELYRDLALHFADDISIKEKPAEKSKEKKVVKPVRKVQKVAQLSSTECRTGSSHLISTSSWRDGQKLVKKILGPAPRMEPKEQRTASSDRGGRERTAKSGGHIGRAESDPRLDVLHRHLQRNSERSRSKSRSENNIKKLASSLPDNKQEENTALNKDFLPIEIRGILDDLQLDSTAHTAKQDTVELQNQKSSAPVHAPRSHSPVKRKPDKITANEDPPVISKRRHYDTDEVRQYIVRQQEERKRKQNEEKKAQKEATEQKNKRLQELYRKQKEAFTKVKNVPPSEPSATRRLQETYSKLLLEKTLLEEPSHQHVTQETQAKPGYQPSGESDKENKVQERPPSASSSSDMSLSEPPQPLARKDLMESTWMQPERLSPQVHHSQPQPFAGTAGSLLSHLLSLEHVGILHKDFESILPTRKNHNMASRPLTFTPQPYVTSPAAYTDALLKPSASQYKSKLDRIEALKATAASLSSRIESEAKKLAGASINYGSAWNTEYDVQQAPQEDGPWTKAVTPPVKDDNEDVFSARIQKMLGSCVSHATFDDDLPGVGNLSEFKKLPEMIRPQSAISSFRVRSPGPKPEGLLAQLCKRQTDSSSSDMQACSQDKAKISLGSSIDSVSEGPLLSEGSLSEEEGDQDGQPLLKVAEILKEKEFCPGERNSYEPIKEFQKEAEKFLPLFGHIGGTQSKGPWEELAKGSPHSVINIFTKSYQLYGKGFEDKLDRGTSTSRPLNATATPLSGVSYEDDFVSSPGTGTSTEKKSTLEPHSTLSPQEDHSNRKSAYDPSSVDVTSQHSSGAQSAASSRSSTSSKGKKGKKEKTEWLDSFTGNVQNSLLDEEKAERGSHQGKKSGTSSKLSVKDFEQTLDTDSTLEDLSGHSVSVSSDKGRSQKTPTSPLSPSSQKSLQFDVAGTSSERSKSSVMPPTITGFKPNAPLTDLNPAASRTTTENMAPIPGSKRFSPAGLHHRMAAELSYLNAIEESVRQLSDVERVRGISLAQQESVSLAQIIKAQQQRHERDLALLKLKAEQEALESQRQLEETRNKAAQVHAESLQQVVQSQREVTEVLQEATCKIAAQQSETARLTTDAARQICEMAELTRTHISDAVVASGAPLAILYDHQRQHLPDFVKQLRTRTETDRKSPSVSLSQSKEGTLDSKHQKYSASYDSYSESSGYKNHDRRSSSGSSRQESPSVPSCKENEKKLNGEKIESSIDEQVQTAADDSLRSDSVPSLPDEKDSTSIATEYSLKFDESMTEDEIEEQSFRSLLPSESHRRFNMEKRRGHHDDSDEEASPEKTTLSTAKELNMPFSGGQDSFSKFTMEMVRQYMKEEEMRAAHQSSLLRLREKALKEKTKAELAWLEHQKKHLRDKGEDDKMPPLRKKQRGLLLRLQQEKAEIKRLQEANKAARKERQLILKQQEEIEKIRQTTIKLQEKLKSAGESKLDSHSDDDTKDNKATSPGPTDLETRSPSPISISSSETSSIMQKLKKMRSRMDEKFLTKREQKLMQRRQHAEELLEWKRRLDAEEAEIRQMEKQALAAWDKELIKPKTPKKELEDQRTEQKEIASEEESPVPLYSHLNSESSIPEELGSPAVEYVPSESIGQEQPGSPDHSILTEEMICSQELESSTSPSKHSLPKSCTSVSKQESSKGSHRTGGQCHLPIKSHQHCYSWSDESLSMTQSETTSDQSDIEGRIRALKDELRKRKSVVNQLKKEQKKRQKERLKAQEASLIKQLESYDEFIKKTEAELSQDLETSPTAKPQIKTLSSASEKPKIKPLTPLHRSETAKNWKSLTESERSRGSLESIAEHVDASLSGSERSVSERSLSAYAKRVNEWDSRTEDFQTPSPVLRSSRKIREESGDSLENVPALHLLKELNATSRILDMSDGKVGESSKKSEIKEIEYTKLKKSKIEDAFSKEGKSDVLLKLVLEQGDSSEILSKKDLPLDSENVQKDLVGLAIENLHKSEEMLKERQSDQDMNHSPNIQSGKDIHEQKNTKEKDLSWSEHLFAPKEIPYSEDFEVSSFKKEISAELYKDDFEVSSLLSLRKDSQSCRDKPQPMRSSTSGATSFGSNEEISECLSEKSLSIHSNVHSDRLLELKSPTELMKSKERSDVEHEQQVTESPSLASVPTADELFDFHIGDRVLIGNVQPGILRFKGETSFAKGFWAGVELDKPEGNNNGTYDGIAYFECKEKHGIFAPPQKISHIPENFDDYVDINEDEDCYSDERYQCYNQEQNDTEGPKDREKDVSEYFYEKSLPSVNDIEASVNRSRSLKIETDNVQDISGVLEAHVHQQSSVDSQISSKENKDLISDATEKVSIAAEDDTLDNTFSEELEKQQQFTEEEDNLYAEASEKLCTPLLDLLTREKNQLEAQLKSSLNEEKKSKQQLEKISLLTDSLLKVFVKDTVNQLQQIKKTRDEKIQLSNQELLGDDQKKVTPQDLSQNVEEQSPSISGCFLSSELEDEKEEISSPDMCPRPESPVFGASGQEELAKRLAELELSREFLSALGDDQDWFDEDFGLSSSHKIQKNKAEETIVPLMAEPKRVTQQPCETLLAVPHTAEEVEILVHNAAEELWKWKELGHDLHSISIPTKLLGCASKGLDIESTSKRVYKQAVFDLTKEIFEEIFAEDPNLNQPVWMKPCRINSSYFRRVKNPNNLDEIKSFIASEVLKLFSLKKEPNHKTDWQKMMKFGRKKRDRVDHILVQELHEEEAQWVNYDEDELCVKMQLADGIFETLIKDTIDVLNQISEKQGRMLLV

First the molecules themselves.
B1: SSX2IP (protein, UniProt Q9Y2D8 1-614)
chain: MGDWMTVTDPGLSSESKTISQYTSETKMSPSSLYSQQVLCSSIPLSKNVHSFFSAFCTEDNIEQSISYLDQELTTFGFPSLYEESKGKETKRELNIVAVLNCMNELLVLQRKNLLAQENVETQNLKLGSDMDHLQSCYSKLKEQLETSRREMIGLQERDRQLQCKNRNLHQLLKNEKDEVQKLQNIIASRATQYNHDMKRKEREYNKLKERLHQLVMNKKDKKIAMDILNYVGRADGKRGSWRTGKTEARNEDEMYKILLNDYEYRQKQILMENAELKKVLQQMKKEMISLLSPQKKKPRERVDDSTGTVISDVEEDAGELSRESMWDLSCETVREQLTNSIRKQWRILKSHVEKLDNQVSKVHLEGFNDEDVISRQDHEQETEKLELEIQQCKEMIKTQQQLLQQQLATAYDDDTTSLLRDCYLLEEKERLKEEWSLFKEQKKNFERERRSFTEAAIRLGLERKAFEEERASWLKQQFLNMTTFDHQNSENVKLFSAFSGSSDWDNLIVHSRQPQKKPHSVSNGSPVCMSKLTKSLPASPSTSDFCQTRSCISEHSSINVLNITAEEIKPNQVGGECTNQKWSVASRPGSQEGCYSGCSLSYTNSHVEKDDLP
B2: OFD1 (protein, UniProt O75665 1-1012)
chain: MMAQSNMFTVADVLSQDELRKKLYQTFKDRGILDTLKTQLRNQLIHELMHPVLSGELQPRSISVEGSSLLIGASNSLVADHLQRCGYEYSLSVFFPESGLAKEKVFTMQDLLQLIKINPTSSLYKSLVSGSDKENQKGFLMHFLKELAEYHQAKESCNMETQTSSTFNRDSLAEKLQLIDDQFADAYPQRIKFESLEIKLNEYKREIEEQLRAEMCQKLKFFKDTEIAKIKMEAKKKYEKELTMFQNDFEKACQAKSEALVLREKSTLERIHKHQEIETKEIYAQRQLLLKDMDLLRGREAELKQRVEAFELNQKLQEEKHKSITEALRRQEQNIKSFEETYDRKLKNELLKYQLELKDDYIIRTNRLIEDERKNKEKAVHLQEELIAINSKKEELNQSVNRVKELELELESVKAQSLAITKQNHMLNEKVKEMSDYSLLKEEKLELLAQNKLLKQQLEESRNENLRLLNRLAQPAPELAVFQKELRKAEKAIVVEHEEFESCRQALHKQLQDEIEHSAQLKAQILGYKASVKSLTTQVADLKLQLKQTQTALENEVYCNPKQSVIDRSVNGLINGNVVPCNGEISGDFLNNPFKQENVLARMVASRITNYPTAWVEGSSPDSDLEFVANTKARVKELQQEAERLEKAFRSYHRRVIKNSAKSPLAAKSPPSLHLLEAFKNITSSSPERHIFGEDRVVSEQPQVGTLEERNDVVEALTGSAASRLRGGTSSRRLSSTPLPKAKRSLESEMYLEGLGRSHIASPSPCPDRMPLPSPTESRHSLSIPPVSSPPEQKVGLYRRQTELQDKSEFSDVDKLAFKDNEEFESSFESAGNMPRQLEMGGLSPAGDMSHVDAAAAAVPLSYQHPSVDQKQIEEQKEEEKIREQQVKERRQREERRQSNLQEVLERERRELEKLYQERKMIEESLKIKIKKELEMENELEMSNQEIKDKSAHSENPLEKYMKIIQQEQDQESADKSSKKMVQEGSLVDTLQSSDKVESLTGFSHEELDDSW
B3: CEP131 (protein, UniProt Q9UPN4 1-1083)
chain: MKGTRAIGSVPERSPAGVDLSLTGLPPPVSRRPGSAATTKPIVRSVSVVTGSEQKRKVLEATGPGGSQAINNLRRSNSTTQVSQPRSGSPRPTEPTDFLMLFEGSPSGKKRPASLSTAPSEKGATWNVLDDQPRGFTLPSNARSSSALDSPAGPRRKECTVALAPNFTANNRSNKGAVGNCVTTMVHNRYTPSERAPPLKSSNQTAPSLNNIIKAATCEGSESSGFGKLPKNVSSATHSARNNTGGSTGLPRRKEVTEEEAERFIHQVNQATVTIQRWYRHQVQRRGAGAARLEHLLQAKREEQRQRSGEGTLLDLHQQKEAARRKAREEKARQARRAAIQELQQKRALRAQKASTAERGPPENPRETRVPGMRQPAQELSPTPGGTAHQALKANNTGGGLPAAGPGDRCLPTSDSSPEPQQPPEDRTQDVLAQDAAGDNLEMMAPSRGSAKSRGPLEELLHTLQLLEKEPDVLPRPRTHHRGRYAWASEVTTEDDASSLTADNLEKFGKLSAFPEPPEDGTLLSEAKLQSIMSFLDEMEKSGQDQLDSQQEGWVPEAGPGPLELGSEVSTSVMRLKLEVEEKKQAMLLLQRALAQQRDLTARRVKETEKALSRQLQRQREHYEATIQRHLAFIDQLIEDKKVLSEKCEAVVAELKQEDQRCTERVAQAQAQHELEIKKLKELMSATEKARREKWISEKTKKIKEVTVRGLEPEIQKLIARHKQEVRRLKSLHEAELLQSDERASQRCLRQAEELREQLEREKEALGQQERERARQRFQQHLEQEQWALQQQRQRLYSEVAEERERLGQQAARQRAELEELRQQLEESSSALTRALRAEFEKGREEQERRHQMELNTLKQQLELERQAWEAGRTRKEEAWLLNREQELREEIRKGRDKEIELVIHRLEADMALAKEESEKAAESRIKRLRDKYEAELSELEQSERKLQERCSELKGQLGEAEGENLRLQGLVRQKERALEDAQAVNEQLSSERSNLAQVIRQEFEDRLAASEEETRQAKAELATLQARQQLELEEVHRRVKTALARKEEAVSSLRTQHEAAVKRADHLEELLEQHRRPTPSTK
B4: NUDCD3 (protein, UniProt Q8IVD9 1-361)
chain: METGAAELYDQALLGILQHVGNVQDFLRVLFGFLYRKTDFYRLLRHPSDRMGFPPGAAQALVLQVFKTFDHMARQDDEKRRQELEEKIRRKEEEEAKTVSAAAAEKEPVPVPVQEIEIDSTTELDGHQEVEKVQPPGPVKEMAHGSQEAEAPGAVAGAAEVPREPPILPRIQEQFQKNPDSYNGAVRENYTWSQDYTDLEVRVPVPKHVVKGKQVSVALSSSSIRVAMLEENGERVLMEGKLTHKINTESSLWSLEPGKCVLVNLSKVGEYWWNAILEGEEPIDIDKINKERSMATVDEEEQAVLDRLTFDYHQKLQGKPQSHELKVHEMLKKGWDAEGSPFRGQRFDPAMFNISPGAVQF
B5: polyglutamylase TTLL5 (enzyme, UniProt Q6EMB2 1-1281)
chain: MPIVMARDLEETASSSEDEEVISQEDHPCIMWTGGCRRIPVLVFHADAILTKDNNIRVIGERYHLSYKIVRTDSRLVRSILTAHGFHEVHPSSTDYNLMWTGSHLKPFLLRTLSEAQKVNHFPRSYELTRKDRLYKNIIRMQHTHGFKAFHILPQTFLLPAEYAEFCNSYSKDRGPWIVKPVASSRGRGVYLINNPNQISLEENILVSRYINNPLLIDDFKFDVRLYVLVTSYDPLVIYLYEEGLARFATVRYDQGAKNIRNQFMHLTNYSVNKKSGDYVSCDDPEVEDYGNKWSMSAMLRYLKQEGRDTTALMAHVEDLIIKTIISAELAIATACKTFVPHRSSCFELYGFDVLIDSTLKPWLLEVNLSPSLACDAPLDLKIKASMISDMFTVVGFVCQDPAQRASTRPIYPTFESSRRNPFQKPQRCRPLSASDAEMKNLVGSAREKGPGKLGGSVLGLSMEEIKVLRRVKEENDRRGGFIRIFPTSETWEIYGSYLEHKTSMNYMLATRLFQDRMTADGAPELKIESLNSKAKLHAALYERKLLSLEVRKRRRRSSRLRAMRPKYPVITQPAEMNVKTETESEEEEEVALDNEDEEQEASQEESAGFLRENQAKYTPSLTALVENTPKENSMKVREWNNKGGHCCKLETQELEPKFNLMQILQDNGNLSKMQARIAFSAYLQHVQIRLMKDSGGQTFSASWAAKEDEQMELVVRFLKRASNNLQHSLRMVLPSRRLALLERRRILAHQLGDFIIVYNKETEQMAEKKSKKKVEEEEEDGVNMENFQEFIRQASEAELEEVLTFYTQKNKSASVFLGTHSKISKNNNNYSDSGAKGDHPETIMEEVKIKPPKQQQTTEIHSDKLSRFTTSAEKEAKLVYSNSSSGPTATLQKIPNTHLSSVTTSDLSPGPCHHSSLSQIPSAIPSMPHQPTILLNTVSASASPCLHPGAQNIPSPTGLPRCRSGSHTIGPFSSFQSAAHIYSQKLSRPSSAKAGSCYLNKHHSGIAKTQKEGEDASLYSKRYNQSMVTAELQRLAEKQAARQYSPSSHINLLTQQVTNLNLATGIINRSSASAPPTLRPIISPSGPTWSTQSDPQAPENHSSSPGSRSLQTGGFAWEGEVENNVYSQATGVVPQHKYHPTAGSYQLQFALQQLEQQKLQSRQLLDQSRARHQAIFGSQTLPNSNLWTMNNGAGCRISSATASGQKPTTLPQKVVPPPSSCASLVPKPPPNHEQVLRRATSQKASKGSSAEGQLNGLQSSLNPAAFVPITSSTDPAHTKI

These are yes or no findings as the source states them, for the method shown. Binding seen in cells or lysates may run through a third protein. Here binding means that the protein was enriched with, or labelled near, the bait; the list need not be complete. Tags and fused reporters may be left off the sequences shown.

For the first assay, the target named is T1, FLAG-BirA*-CCP6 (cytosolic carboxypeptidase 6 fused to FLAG-tagged BirA*) (human) (UniProt Q5VU57).
T1 sequence: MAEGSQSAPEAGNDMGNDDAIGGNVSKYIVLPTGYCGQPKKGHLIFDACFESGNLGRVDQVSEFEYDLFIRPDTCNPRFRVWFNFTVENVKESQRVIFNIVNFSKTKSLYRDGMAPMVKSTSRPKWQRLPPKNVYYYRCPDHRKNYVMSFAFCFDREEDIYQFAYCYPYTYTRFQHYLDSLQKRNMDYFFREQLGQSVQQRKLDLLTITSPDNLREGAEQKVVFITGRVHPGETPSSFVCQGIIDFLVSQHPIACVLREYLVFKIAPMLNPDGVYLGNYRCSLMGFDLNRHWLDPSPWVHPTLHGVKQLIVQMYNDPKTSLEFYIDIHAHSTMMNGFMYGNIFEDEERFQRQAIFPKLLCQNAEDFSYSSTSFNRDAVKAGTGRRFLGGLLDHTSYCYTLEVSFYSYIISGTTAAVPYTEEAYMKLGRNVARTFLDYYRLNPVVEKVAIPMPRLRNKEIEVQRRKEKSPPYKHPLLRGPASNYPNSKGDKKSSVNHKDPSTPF
As to the kind of experiment: proximity labelling; BioID in Flp-In T-REX 293 stable cell pools expressing BirA*-CCP6; tetracycline 1 ug/mL 24 h, then 50 uM biotin 24 h; lysis in 2% SDS, 8 M urea; streptavidin agarose, on-bead trypsin, LC-MS/MS, LFQ; enrichment against GFP-BirA* (t-test, FDR 0.05); three biological replicates.
CSPP1 (from UniProt Q1MSJ5 1-1256): the binding result is recorded as “binds”.

As for CLSPN (from UniProt Q9HAW4 1-1339), the binding entry is recorded as “binds”.

In the case of C2CD3 (from UniProt Q4AC94 1-2353), the binding entry is recorded as “binds”.

In the case of CEP152 (from UniProt O94986 1-1710), the binding entry is on record as “binds”.

For the molecule CEP192 (from UniProt Q8TEP8 1-2537), the binding result is recorded as “binds”.

On to CEP350 (from UniProt Q5VT06 1-3117), for which the binding result is given as “binds”.

The next assay concerns the target T1, FLAG-BirA*-CCP6 (cytosolic carboxypeptidase 6 fused to FLAG-tagged BirA*) (human). The assay is described as above. The source holds these as a separate data set.
As to B1, the binding result is listed as “binds”.

For B2, the binding result is on record as “binds”.

Regarding B3, the binding result is “binds”.

B4: the binding entry is recorded as “binds”.

With B5, the binding result is “binds”.
